# Over roughly 33,000 sequences, “E-score (-0.5 to 0.5)” has its median near -0.016; the highest 2% begin near 0.3. This is one part of the list.
# Molecular target: T1, Yer184c (UniProt P39961)
# T1 sequence: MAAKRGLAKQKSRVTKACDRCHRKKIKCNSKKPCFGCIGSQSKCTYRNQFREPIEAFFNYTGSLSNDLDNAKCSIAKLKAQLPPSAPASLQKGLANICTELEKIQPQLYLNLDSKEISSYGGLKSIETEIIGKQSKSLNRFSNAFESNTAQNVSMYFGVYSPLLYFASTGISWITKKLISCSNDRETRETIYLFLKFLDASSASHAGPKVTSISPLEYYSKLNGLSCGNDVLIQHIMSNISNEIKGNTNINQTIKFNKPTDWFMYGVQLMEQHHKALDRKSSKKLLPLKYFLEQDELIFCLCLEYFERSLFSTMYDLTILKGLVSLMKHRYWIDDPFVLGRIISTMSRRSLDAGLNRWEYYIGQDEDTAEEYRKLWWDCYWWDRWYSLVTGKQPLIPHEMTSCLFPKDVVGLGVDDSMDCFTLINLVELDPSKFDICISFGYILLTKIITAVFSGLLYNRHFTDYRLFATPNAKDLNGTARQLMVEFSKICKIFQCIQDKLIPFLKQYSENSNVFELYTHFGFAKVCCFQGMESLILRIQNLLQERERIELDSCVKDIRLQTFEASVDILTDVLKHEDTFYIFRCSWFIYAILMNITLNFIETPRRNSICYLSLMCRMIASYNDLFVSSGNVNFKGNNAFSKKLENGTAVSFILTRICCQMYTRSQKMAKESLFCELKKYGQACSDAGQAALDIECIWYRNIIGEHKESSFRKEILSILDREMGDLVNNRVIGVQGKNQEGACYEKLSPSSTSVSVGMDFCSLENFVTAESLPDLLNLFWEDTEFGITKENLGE
# Experiment: PBM E-score (8-mer binding enrichment) (E-score (-0.5 to 0.5)); higher = stronger / more preferred TF binding
# Settings: protein concentration: 100 nM; construct: GST-full length
# Method: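 Universal 'all 10-mer' protein binding microarrays (Agilent AMADID 015681) probed with GST-tagged S. cerevisiae TFs (full-length or DBD) made by in vitro transcription/translation (PURExpress), about 100-200 nM. Bound TF was detected with fluorescent anti-GST. Each ungapped 8-mer (which stands for itself and its reverse complement) is scored by the PBM enrichment score (E-score), a modified Wilcoxon-Mann-Whitney statistic from -0.5 to +0.5, computed with the Universal PBM Analysis Suite. Scale: above 0.35 generally sequence-specific binding.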
row,Sequence,PBM E-score
1,AAAGAACA,0.215
2,CAGATTAG,-0.152
3,CGGGAAAA,0.244
4,CCTATAAA,-0.134
5,GCCGGCGA,0.311
6,GTGTTCGA,0.035
7,CGTTTTCA,0.159
8,CCGCCCCG,0.289
9,ATAAAATA,0.157
10,AAACGTCC,-0.0995
11,GATGTCGC,-0.173
12,GATTGGGA,-0.133
13,CTCATACC,0.0516
14,CGCTAGTA,0.148
15,CTGGTGGC,-0.183
16,GCTTCACA,-0.114
17,AATCTCAG,-0.253
18,ACTTCTTG,-0.129
19,AGTCGCAT,-0.0743
20,ATTATGAA,0.202
21,GCGAGCAC,-0.213
22,GCTCAAAC,0.19
23,AGGTGGAC,-0.288
24,GTTCCGCA,0.268

row,Sequence,PBM E-score
1,GAACGGTA,0.0832
2,CCAGTACA,-0.119
3,ATCTTGAC,-0.0748
4,AGGGGTTC,-0.305
5,AATTGGCA,-0.0934
6,GGTCCAGA,-0.126
7,CGTGAATC,0.0513
8,AAGTAGAT,0.0939
9,ACGATGCG,-0.129
10,CGCTCACG,0.0198
11,AACGTACG,-0.119
12,ACTGCCTG,-0.0789
13,ACGTGAAT,-0.0871
14,CGTCTACC,0.0232
15,GCGGCTAC,0.0898
16,CCGCGGCG,0.326
17,CCAGTGAA,-0.0934
18,GACGCCTA,-0.199
19,TCCCCAAA,-0.12
20,CAAAAGCC,0.0972
21,CGATTGTC,0.0877
22,CTGATCGA,-0.172
23,AATACAGC,0.0754
24,ACTTCATC,0.0593

row,Sequence,PBM E-score
1,AGGTCGTG,-0.192
2,GAAGGTAC,-0.106
3,CAGCGCAG,-0.0406
4,CACGCTGA,-0.128
5,CAAGACCC,-0.225
6,AAGACTCG,-0.00603
7,ATTCTTCG,0.123
8,AGTTCACC,0.172
9,GAGGCCAC,-0.138
10,CGTGATAA,0.14
11,CCTCACAG,-0.0554
12,GTTTGGTA,0.139
13,AAAGCCTT,-0.135
14,CTGCATAA,0.11
15,CAATGATA,0.0278
16,AGGCCACA,-0.197
17,AGGTAATA,0.136
18,GTGGCCCA,-0.182
19,ATCCCTCG,-0.0408
20,AGTGTGCA,-0.0513
21,CAAGACGA,-0.0111
22,ACGTTGAT,0.0751
23,CTGGCGGC,0.0137
24,GTAGCGTA,-0.205

row,Sequence,PBM E-score
1,ATTCGATG,-0.0297
2,ATCGCTCA,-0.165
3,CATAGGTA,-0.151
4,ATTTGAGC,0.0535
5,ACAGCCCA,-0.0828
6,CCGACCGG,0.241
7,CGATGCAA,-0.00579
8,ATGACATA,0.00811
9,AAGGCTGA,-0.125
10,AAATTGTG,-0.172
11,AAGAACAC,0.165
12,ACCGAACT,0.306
13,CTGGTTTC,0.119
14,AGCACAAC,0.161
15,GGTCGTGA,-0.142
16,ATACTTTG,0.138
17,GAGAACCC,-0.163
18,TCAATGGA,-0.0551
19,CTCTTATA,0.145
20,AGATGCAG,-0.0823
21,AATTATCT,0.184
22,CAGTGCAC,-0.0888

# Some of the entries so far, tab-delimited.
row	Sequence	PBM E-score
1	ATTCGATG	-0.0297
2	ATCGCTCA	-0.165

# Reference: the supplement of paper PMC3334620
